{"sequences": {"note": "By UniProt entry, the sequences of proteins in these tests, tags left out. Where a name states a change or a piece, a line headed by the entry shows the natural chain unless it says otherwise.", "UniProt Q96M86": "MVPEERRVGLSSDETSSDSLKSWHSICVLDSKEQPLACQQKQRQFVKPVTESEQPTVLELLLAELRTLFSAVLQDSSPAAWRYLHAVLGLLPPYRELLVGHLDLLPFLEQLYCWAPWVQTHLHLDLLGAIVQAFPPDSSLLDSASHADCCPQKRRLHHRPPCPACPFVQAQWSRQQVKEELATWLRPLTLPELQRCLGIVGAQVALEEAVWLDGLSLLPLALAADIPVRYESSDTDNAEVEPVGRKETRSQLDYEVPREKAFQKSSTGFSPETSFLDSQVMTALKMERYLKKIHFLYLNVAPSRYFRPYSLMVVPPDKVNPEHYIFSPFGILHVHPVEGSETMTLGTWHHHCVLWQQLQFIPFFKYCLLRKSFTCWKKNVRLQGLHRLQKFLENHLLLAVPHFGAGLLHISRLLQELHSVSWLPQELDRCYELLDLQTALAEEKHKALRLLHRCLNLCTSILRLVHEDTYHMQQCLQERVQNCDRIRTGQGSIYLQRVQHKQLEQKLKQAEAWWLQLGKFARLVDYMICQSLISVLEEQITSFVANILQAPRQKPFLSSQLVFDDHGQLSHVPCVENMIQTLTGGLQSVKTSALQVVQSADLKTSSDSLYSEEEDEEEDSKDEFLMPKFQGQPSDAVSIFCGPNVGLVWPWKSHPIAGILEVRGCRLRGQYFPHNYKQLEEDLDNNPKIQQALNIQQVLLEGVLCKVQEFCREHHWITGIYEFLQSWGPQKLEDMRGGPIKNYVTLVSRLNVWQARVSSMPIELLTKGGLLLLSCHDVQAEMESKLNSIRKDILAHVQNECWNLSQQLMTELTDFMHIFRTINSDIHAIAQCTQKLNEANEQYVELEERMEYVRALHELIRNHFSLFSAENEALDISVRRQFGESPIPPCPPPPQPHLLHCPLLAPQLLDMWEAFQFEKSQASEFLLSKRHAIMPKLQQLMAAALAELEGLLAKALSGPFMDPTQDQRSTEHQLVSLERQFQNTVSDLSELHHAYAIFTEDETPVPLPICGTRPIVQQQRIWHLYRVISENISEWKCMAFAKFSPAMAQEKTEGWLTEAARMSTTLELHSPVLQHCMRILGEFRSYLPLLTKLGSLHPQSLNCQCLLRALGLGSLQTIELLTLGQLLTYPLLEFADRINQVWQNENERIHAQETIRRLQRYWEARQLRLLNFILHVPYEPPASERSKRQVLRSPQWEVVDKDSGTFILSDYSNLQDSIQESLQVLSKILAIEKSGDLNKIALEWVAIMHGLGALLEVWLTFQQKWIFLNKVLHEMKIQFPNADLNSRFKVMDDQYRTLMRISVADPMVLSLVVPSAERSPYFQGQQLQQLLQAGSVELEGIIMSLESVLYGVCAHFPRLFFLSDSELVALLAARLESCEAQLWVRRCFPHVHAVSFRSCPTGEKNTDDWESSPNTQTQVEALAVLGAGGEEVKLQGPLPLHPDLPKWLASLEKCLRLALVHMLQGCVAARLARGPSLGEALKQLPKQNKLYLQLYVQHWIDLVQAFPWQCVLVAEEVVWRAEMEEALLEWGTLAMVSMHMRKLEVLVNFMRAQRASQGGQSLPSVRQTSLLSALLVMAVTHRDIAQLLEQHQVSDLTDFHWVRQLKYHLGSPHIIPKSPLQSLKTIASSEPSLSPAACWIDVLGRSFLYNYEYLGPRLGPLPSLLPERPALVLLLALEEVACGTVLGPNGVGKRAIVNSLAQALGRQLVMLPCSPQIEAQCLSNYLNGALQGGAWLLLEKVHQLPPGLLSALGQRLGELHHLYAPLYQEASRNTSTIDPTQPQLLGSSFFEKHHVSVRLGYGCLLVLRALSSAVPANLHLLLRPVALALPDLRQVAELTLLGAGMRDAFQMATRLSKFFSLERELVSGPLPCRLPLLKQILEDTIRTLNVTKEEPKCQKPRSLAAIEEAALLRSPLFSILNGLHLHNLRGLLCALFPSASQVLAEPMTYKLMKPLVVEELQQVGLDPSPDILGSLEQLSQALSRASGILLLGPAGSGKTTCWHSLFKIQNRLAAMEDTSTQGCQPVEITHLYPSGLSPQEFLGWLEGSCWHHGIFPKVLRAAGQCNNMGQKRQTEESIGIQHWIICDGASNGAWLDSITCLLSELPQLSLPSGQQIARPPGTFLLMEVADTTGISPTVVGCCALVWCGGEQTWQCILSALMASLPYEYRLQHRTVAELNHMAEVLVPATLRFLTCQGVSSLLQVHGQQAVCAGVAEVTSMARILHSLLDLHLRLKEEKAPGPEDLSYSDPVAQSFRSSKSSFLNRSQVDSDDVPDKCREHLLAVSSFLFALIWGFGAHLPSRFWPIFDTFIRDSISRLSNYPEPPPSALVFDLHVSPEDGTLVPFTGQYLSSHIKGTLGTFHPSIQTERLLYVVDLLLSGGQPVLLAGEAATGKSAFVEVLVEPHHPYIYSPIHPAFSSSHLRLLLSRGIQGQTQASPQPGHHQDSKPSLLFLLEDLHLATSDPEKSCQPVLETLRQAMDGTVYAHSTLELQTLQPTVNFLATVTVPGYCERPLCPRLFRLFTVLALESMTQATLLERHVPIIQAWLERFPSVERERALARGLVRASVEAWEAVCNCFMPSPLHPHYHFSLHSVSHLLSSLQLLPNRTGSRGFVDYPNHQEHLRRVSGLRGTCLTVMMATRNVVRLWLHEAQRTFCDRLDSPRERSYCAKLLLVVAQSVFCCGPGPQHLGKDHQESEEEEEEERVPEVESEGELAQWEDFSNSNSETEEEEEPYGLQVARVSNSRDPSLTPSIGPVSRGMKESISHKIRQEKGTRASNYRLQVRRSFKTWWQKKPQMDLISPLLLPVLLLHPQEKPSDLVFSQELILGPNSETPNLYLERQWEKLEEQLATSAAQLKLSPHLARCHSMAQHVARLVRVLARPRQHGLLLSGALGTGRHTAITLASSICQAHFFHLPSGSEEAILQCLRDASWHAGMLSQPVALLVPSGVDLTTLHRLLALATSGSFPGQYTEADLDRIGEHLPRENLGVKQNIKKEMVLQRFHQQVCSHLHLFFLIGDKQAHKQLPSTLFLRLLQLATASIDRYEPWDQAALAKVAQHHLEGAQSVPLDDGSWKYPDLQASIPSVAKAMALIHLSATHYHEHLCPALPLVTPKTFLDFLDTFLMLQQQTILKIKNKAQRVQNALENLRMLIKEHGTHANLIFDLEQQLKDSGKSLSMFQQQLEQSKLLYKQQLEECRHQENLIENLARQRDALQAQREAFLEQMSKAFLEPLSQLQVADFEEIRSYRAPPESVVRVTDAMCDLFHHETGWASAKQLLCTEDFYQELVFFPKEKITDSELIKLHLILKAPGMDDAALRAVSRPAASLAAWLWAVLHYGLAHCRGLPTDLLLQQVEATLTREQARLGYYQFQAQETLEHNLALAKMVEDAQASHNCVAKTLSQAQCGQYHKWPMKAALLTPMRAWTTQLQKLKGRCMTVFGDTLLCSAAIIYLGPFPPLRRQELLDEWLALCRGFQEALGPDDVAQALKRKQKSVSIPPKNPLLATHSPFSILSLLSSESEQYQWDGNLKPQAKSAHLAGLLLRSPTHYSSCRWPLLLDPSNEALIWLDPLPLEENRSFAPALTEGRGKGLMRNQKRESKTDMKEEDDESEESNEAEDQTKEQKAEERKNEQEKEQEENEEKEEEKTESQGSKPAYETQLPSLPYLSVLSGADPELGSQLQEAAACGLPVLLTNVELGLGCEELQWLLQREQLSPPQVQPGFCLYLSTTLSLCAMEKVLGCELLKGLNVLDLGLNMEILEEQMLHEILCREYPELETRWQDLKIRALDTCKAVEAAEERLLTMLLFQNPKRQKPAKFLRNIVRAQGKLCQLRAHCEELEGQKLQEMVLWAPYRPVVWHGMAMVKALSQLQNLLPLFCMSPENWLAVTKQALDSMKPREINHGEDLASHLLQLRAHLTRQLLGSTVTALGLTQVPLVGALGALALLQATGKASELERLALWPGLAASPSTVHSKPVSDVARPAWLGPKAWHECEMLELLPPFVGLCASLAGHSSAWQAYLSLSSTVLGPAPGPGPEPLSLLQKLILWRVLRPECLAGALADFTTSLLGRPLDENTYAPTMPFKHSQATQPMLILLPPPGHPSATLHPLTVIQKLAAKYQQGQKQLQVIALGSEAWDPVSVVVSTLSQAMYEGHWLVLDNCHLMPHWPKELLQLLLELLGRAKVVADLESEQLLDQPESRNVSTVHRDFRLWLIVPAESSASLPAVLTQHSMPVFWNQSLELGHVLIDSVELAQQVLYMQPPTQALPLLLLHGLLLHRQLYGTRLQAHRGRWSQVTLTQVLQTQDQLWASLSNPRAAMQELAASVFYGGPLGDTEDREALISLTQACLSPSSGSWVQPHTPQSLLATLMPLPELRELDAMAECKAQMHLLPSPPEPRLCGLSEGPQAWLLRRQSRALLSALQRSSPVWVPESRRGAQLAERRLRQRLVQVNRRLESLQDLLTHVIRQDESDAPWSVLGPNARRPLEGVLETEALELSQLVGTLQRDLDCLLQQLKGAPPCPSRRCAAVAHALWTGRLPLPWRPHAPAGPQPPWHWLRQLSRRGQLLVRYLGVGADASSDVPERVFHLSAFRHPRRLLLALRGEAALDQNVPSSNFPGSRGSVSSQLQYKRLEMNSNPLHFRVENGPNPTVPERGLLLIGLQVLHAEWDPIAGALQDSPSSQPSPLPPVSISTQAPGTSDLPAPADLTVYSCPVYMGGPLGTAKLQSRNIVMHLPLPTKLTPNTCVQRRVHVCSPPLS", "UniProt Q08495": "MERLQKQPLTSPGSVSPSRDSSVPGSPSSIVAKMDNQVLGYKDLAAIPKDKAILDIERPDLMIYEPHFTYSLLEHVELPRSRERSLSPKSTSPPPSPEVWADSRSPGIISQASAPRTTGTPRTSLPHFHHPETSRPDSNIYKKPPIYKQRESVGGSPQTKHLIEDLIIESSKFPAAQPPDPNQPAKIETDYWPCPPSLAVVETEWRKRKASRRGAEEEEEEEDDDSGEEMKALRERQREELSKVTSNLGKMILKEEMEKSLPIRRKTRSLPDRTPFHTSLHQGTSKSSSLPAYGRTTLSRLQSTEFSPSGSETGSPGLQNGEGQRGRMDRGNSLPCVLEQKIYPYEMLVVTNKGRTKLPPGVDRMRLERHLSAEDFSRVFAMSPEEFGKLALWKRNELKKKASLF", "UniProt Q5QJE6": "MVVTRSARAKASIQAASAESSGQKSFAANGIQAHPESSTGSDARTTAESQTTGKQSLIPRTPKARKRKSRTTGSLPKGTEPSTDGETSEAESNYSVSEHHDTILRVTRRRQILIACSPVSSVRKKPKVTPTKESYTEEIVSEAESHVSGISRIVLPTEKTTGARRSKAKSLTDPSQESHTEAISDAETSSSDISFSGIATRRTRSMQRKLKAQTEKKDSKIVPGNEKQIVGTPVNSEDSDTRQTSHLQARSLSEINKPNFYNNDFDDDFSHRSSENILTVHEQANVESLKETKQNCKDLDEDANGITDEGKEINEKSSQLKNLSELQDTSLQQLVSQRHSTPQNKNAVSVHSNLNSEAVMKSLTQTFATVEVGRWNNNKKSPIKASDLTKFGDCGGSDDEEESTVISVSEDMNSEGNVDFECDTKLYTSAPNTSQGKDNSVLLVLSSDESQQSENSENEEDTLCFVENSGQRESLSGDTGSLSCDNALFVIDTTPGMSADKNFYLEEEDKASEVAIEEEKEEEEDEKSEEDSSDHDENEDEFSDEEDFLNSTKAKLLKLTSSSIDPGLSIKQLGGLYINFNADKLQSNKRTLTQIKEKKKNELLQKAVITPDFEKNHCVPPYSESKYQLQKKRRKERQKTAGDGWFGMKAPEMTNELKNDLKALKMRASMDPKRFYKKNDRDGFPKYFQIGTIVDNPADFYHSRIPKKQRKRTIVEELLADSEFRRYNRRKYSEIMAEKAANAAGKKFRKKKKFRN", "UniProt P25686": "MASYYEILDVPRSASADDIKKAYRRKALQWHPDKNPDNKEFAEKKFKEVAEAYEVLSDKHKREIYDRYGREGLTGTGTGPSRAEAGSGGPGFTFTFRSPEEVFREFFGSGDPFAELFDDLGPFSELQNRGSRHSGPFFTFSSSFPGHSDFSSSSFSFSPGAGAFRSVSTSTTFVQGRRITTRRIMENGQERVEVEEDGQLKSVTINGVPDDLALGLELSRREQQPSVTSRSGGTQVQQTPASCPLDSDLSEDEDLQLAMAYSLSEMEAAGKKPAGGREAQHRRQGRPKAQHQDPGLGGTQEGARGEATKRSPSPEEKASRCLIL", "UniProt Q9UBS3": "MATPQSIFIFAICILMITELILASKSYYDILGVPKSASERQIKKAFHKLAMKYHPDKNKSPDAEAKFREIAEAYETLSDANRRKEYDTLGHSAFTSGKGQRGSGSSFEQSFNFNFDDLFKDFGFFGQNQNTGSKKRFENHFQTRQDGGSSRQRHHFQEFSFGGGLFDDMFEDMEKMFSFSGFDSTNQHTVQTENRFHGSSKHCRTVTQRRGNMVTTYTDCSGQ"}, "source": "the supplement of paper PMC10849652", "note": "This is one part of the list.", "data": [{"compound": "CNC(=O)c1ccc(Nc2ncc(C(F)(F)F)c(NCc3nccnc3N(C)S(C)(=O)=O)n2)cc1 [defactinib]", "assay": "log2 fold change, soluble protein after heating vs DMSO (PISA); higher = thermal stabilisation; K562 lysate, 10 uM; active = over 0.2 and 3.5 SD of the protein, either way, in both replicates (recomputed)", "method_in_brief": "(§1)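 Quantification was by TMTpro 16plex LC-MS/MS with equalised channel sums, applied to the supernatant after 21,000xg for 90 min. Samples were crude K562 extract at 1 mg/mL protein in PBS pH 7.4 with 1 mM MgCl2, treated with 10 μM compound for 30 min, heated for 3 min across 48°C-58°C, pooled and brought to 0.5% NP-40 at 4°C. Values are log-two fold changes in thermal stability relative to solvent controls, from duplicates.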", "values": [{"target": "DNHD1 (UniProt Q96M86)", "log2 fold change": "inactive: 0.047"}, {"target": "DMTN isoform 2 (UniProt Q08495)", "log2 fold change": "inactive: 0.069"}, {"target": "DNAH12 (UniProt Q6ZR08)", "log2 fold change": "inactive: -0.134"}, {"target": "DNTTIP2 (UniProt Q5QJE6)", "log2 fold change": "inactive: -0.231"}, {"target": "DOT1L isoform 1 (UniProt Q8TEK3)", "log2 fold change": "inactive: -0.02"}, {"target": "DNMT3B (UniProt Q9UBC3)", "log2 fold change": "inactive: 0.096"}, {"target": "DHRSX (UniProt Q8N5I4)", "log2 fold change": "inactive: 0.034"}, {"target": "DNTTIP1 (UniProt Q9H147)", "log2 fold change": "inactive: 0.007"}, {"target": "DNAJA3 isoform 2 (UniProt Q96EY1)", "log2 fold change": "inactive: -0.127"}, {"target": "DMBT1 isoform 6 (UniProt Q9UGM3)", "log2 fold change": "inactive: -0.043"}, {"target": "DNPEP (UniProt C9JBE1)", "log2 fold change": "inactive: -0.091"}, {"target": "DLG5 (UniProt Q8TDM6)", "log2 fold change": "inactive: -0.039"}, {"target": "DNAJB2 (UniProt P25686)", "log2 fold change": "inactive: -0.119"}, {"target": "DOP1B (UniProt Q9Y3R5)", "log2 fold change": "inactive: -0.042"}]}, {"compound": "CNc1nc(-c2ccc3c(N)n[nH]c3c2)cc(N2C[C@@H](C(=O)NC3CCCCC3)CC[C@H]2C)n1", "assay": "log2 fold change, soluble protein after heating vs DMSO (PISA); higher = thermal stabilisation; K562 lysate, 10 uM; active = over 0.2 and 3.5 SD of the protein, either way, in both replicates (recomputed)", "method_in_brief": "as §1", "values": [{"target": "DMTN isoform 2 (UniProt Q08495)", "log2 fold change": "inactive: 0.012"}, {"target": "DNPEP (UniProt B9ZVU2)", "log2 fold change": "inactive: 0.042"}, {"target": "DNAH12 (UniProt Q6ZR08)", "log2 fold change": "inactive: -0.128"}, {"target": "DNTTIP2 (UniProt Q5QJE6)", "log2 fold change": "inactive: 0.117"}, {"target": "DNAJC14 (UniProt Q6Y2X3)", "log2 fold change": "inactive: 0.095"}, {"target": "DHRS13 (UniProt Q6UX07)", "log2 fold change": "inactive: 0.004"}, {"target": "DNAJB9 (UniProt Q9UBS3)", "log2 fold change": "inactive: -0.149"}, {"target": "DOCK6 (UniProt Q96HP0)", "log2 fold change": "inactive: 0.154"}, {"target": "DOT1L isoform 1 (UniProt Q8TEK3)", "log2 fold change": "inactive: -0.051"}, {"target": "DHRSX (UniProt Q8N5I4)", "log2 fold change": "inactive: 0.053"}, {"target": "DOP1A (UniProt Q5JWR5)", "log2 fold change": "inactive: 0.235"}, {"target": "DNTTIP1 (UniProt Q9H147)", "log2 fold change": "inactive: -0.184"}, {"target": "DNAJA3 isoform 2 (UniProt Q96EY1)", "log2 fold change": "inactive: 0.085"}, {"target": "DLGAP5 isoform 3 (UniProt Q15398)", "log2 fold change": "inactive: -0.051"}, {"target": "DLG5 (UniProt Q8TDM6)", "log2 fold change": "inactive: 0.07"}, {"target": "DNAJB2 (UniProt P25686)", "log2 fold change": "inactive: 0.025"}, {"target": "DHX33 (UniProt Q9H6R0)", "log2 fold change": "inactive: 0.023"}]}]}
